In PubChem BioAssay AID485314 (National Center for Advancing Translational Sciences (NCATS), 2010):
Several values for one entry are separate records, joined by “and”; a condition that tells them apart may be missing. Identical values can stand only once. Hit rate of the full screen: of about 340,000 compounds, about 4,500 (1.3%) were called active. This list was built around the results that the source calls inconclusive (neither active nor inactive); the mix of calls is not that of the screen. Calls follow the shape of the dose curve; as a rule, active = well fitted inhibition curve with a large enough effect; inconclusive = small, poorly fitted or top-dose-only effect, or another doubt; inactive = no such curve, though single readings can be large or run the other way. Where the call is inconclusive, the potency comes from a doubtful curve fit.

target: DNA polymerase beta (Homo sapiens) (UniProt P06746); test: qHTS Assay for Inhibitors of DNA Polymerase Beta; details: Pol beta primer extension/strand displacement, fluorescence kinetic; activity change, negative = inhibition: at 114 µM (top of the series)
Procedure, shortened: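 10 nM enzyme + cpd, 15 min RT; start with substrate 50 nM final; read 0 min and after 10 min RT. Corrected, normalized data; 4-parameter Hill curve fit.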
% is scaled to controls: 0 for no effect and ±100 for the full control effect; potency is read from the fitted curve at half-maximal effect.

SMILES	Potency	activity change, negative = inhibition
CCOC(=O)c1c([N+](=O)[O-])c(C)[nH]c(=O)c1C#N	inconclusive: 1.12 µM [inhibitor, full curve, poor fit]	
CCOc1ccc(C(=O)C(CN2CCOCC2)c2ccccc2)cc1 (configuration not stated)		inactive: 7.33%
CCCCCN1C=CC=C/C1=C\C=C(C#N)C#N	inconclusive: 39.8 µM [inhibitor, single point]	
CCN1CCN(c2cc(C)c3cc(NC(=O)c4ccc(OC)c(OC)c4)ccc3n2)CC1	active: 28.2 µM and active: 8.91 µM	
CCc1cc2c(SCc3nc4sc(C(C)=O)c(C)c4c(=O)[nH]3)ncnc2s1	inconclusive: 79.4 µM [inhibitor, single point]	
CC(=O)Nc1ccc(NC(=O)CSc2nc(N)c(NC(=O)c3ccco3)c(=O)[nH]2)cc1	inconclusive: 12.6 µM [inhibitor, partial curve]	
CC(=O)c1cccc(NC(=O)c2nc(-c3ccccc3)n(-c3ccccc3C)n2)c1	inconclusive: 31.6 µM [inhibitor, partial curve]	
COc1ccc(C)cc1Nc1nc(N)c2cc(OC)c(OC)cc2n1	inconclusive: 89.1 µM [inhibitor, single point] and inconclusive: 50.1 µM [inhibitor, partial curve]	
COc1ccc(C2c3cccn3CCN2S(=O)(=O)c2ccc([N+](=O)[O-])cc2)cc1 (configuration not stated)		inactive: -5.51%
O=C(Nc1ccc(C2=NCCN2)cc1)c1ccc(C(=O)Nc2ccc(C3=NCCN3)cc2)c([N+](=O)[O-])c1	active: 2.24 µM	
c1ccc(-c2cc3c(N4CCN(c5ccccc5)CC4)ncnc3s2)cc1	inconclusive: 89.1 µM [inhibitor, single point]	
O=C(c1cccc(COc2cccc3ccccc23)c1)N1CCCC1	inconclusive: 1.12 µM [inhibitor, full curve]	
Cc1cc(C)c(NC(=O)Cn2c(=O)n(Cc3ccc(C(=O)NCc4ccco4)cc3)c(=O)c3sccc32)c(C)c1	active: 1.12 µM	
Cc1c(Cl)ccc2sc(N3CCN(C(=O)CS(=O)(=O)c4ccccc4)CC3)nc12		inactive: -7.55%
Cc1ccc2oc(=O)c3cnn(CC(=O)NCCCOC(C)C)c3c2c1	inconclusive: 5.01 µM [inhibitor, full curve, poor fit]	
OC1CCN(c2cc(-c3ccccc3)nc3cc(-c4ccc(F)cc4)nn23)CC1	inconclusive: 89.1 µM [inhibitor, single point]	
CN1C(=O)/C(=C/c2ccco2)SC1=Nc1cccc(C(=O)O)c1	active: 17.8 µM	
CCN(CC)CCN1c2ccccc2Sc2ccccc21	inconclusive: 2.82 µM [inhibitor, full curve, poor fit]	
O=C(CCn1c(=O)oc2ccccc21)NCCN1CCOCC1	inconclusive: 79.4 µM [inhibitor, single point]	
CCC(=O)N1CCc2cc(S(=O)(=O)NC(C(=O)Nc3cc(OC)cc(OC)c3)C(C)C)ccc21 (configuration not stated)		inactive: 19.8%
CSc1cccc(NC(=O)CSc2ccccc2)c1	inconclusive: 50.1 µM [inhibitor, partial curve]	

SMILES	Potency	activity change, negative = inhibition
CCCC1=NN2C(=N)/C(=C\c3ccc(OCCOc4ccc(NC(C)=O)cc4)c(OC)c3)C(=O)N=C2S1	inconclusive: 39.8 µM [inhibitor, single point]	
Cc1cc([N+](=O)[O-])c2[nH]c(C(=O)N/N=C/c3ccccc3C(=O)O)c(-c3ccccc3)c2c1	active: 28.2 µM	
CS(=O)(=O)c1ccc(C(=O)OC2CCOC2=O)cc1[N+](=O)[O-] (configuration not stated)	inconclusive: 89.1 µM [inhibitor, single point]	
COc1[nH]c(/N=C/c2ccccc2)c(C#N)c1C#N	active: 89.1 µM	
CCn1cc2nc(SCc3cccc(C(F)(F)F)c3)n(Cc3ccc(C)cc3)c(=O)c2n1		inactive: -9.67%
Cc1oc2c(c1C(=O)c1ccccc1)C(=O)C(=O)c1ccccc1-2	active: 56.2 µM	
COc1ccc(-c2cc(C(=O)Nc3cnn(Cc4ccc(F)cc4)c3)no2)cc1OC		inactive: -26.6%
CCC(C)c1ccc(OCC(=O)Nc2ccc(-c3nc4ncccc4o3)cc2)cc1 (configuration not stated)	inconclusive: 12.6 µM [inhibitor, full curve]	
O=C(N/N=C/c1ccc([N+](=O)[O-])o1)c1cc(-c2ccncc2)nc2ccccc12	inconclusive: 14.1 µM [inhibitor, full curve, poor fit]	
COc1ccc(/C=N/n2cnnc2)cc1Br	inconclusive: 1.58 µM [inhibitor, full curve, poor fit]	
CCN(CC)C(=O)Cn1cc(S(=O)(=O)CC(=O)NCc2ccc(F)cc2)c2ccccc21	inconclusive: 8.91 µM [inhibitor, full curve, poor fit]	
COc1cc(/C=C(/C#N)c2nc3ccccc3[nH]2)ccc1Oc1ncccc1[N+](=O)[O-]	active: 12.6 µM	
Oc1ccc(-c2nc(-c3ccc(O)c(O)c3)cs2)cc1	active: 39.8 µM	
O=C(Nc1ccc(Oc2ccccc2)nc1)C1CCCCN1Cc1ccco1 (configuration not stated)		inactive: 26.5%
COc1ccc(NS(=O)(=O)c2cc(NC(=O)c3cccc(OCc4c(C)noc4C)c3)ccc2OC)cc1	inconclusive: 89.1 µM [inhibitor, single point]	
CCOC(=O)c1c(S(=O)(=O)NCCCc2ccco2)c(C)n(C)c1C		inconclusive: -68.5% [inhibitor]
CC1(C)CC(N2CCN(c3ccccc3)CC2)=CC(=[N+]2CCCC2)C1	inconclusive: 0.794 µM [inhibitor, full curve, poor fit]	
CN1C2CCC1/C(=C\c1ccc(F)cc1)C(=O)/C2=C/c1ccc(F)cc1		inactive: -0.725%
Cc1ccc(N2C(=O)CSC23C(=O)N(CC(=O)Nc2ccccc2F)c2ccccc23)cc1C (configuration not stated)	inconclusive: 44.7 µM [inhibitor, partial curve, poor fit]	
COc1cc(/C=C2/SC(=S)N(Cc3ccccc3)C2=O)cc(Cl)c1O	active: 39.8 µM	
Cc1nn(-c2ccc(C(=O)O)cc2)c(C)c1Cl	inconclusive: 39.8 µM [inhibitor, single point]	
